PMC5253655
Substitutions are numbered along the chain they refer to. No constants are given. Whether binding was seen depends on the method and setting. In cells and extracts the contact can be indirect. For part of these data: Binding can be weak; no strength is given. Where a sequence is shown, tags or fusion partners need not be part of it.

Key:
Assay in all cases: co-IP; Flag immunoprecipitation (anti-Flag antibody or normal mouse serum, Protein G Sepharose) from metaphase-arrested Xenopus CSF egg extracts expressing 2xFlag-huWdr8 constructs from added mRNA; 23 °C; washes TBS-T and TBS; Western blot
2xFlag-359/360AA (human) = target: T1, 2xFlag-359/360AA (human) (UniProt Q9P2S5)
T1 sequence: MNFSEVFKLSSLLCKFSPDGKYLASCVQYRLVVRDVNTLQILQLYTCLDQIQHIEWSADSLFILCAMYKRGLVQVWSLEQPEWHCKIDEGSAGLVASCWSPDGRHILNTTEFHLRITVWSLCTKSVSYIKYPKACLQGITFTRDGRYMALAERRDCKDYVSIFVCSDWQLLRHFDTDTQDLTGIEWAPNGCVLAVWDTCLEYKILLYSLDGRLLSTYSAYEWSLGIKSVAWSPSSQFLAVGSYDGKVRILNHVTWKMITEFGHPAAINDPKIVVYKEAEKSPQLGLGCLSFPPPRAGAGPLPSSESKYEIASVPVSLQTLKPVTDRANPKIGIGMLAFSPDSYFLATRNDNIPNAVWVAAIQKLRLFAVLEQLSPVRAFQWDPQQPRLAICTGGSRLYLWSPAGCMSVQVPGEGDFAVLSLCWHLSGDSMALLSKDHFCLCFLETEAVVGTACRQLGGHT

[1] = target: T2, 2xFlag-huWdr8 wild-type (human) (UniProt Q9P2S5)
T2 sequence: T1 sequence with A359W, A360D

2xFlag-196/197AA (human) = target: T3, 2xFlag-196/197AA (human) (UniProt Q9P2S5)
T3 sequence: T1 sequence with W196A, D197A, A359W, A360D

Substance: SSX2IP
- binding (2xFlag-359/360AA (human)): no binding
- binding [1]: binds
- binding (2xFlag-196/197AA (human)): no binding
